Experimental data from article PMC4503440.
No constants are given. Whether binding was seen depends on the method and setting. In cells and extracts the contact can be indirect. Some entries that bind do so weakly or less than the wild type. Sequences can lack the tags named with a protein.

B1: Flag-tagged wild-type rat Git1 (protein, UniProt Q9Z272 1-770)
chain: MSRKGPRAEVCADCSAPDPGWASISRGVLVCDECCSVHRSLGRHISIVKHLRHSAWPPTLLQMVHTLASNGANSIWEHSLLDPAQVQSGRRKANPQDKVHPIKSEFIRAKYQMLAFVHKLPCRDDDGVTAKDLSKQLHSSVRTGNLETCLRLLSLGAQANFFHPEKGTTPLHVAAKAGQTLQAELLVVYGADPGSPDVNGRTPIDYARQAGHHELAERLVECQYELTDRLAFYLCGRKPDHKNGHYIIPQMADRSRQKCMSQSLDLSELAKAAKKKLQALSNRLFEELAMDVYDEVDRRENDAVWLATQNHSTLVTERSAVPFLPVNPEYSATRNQGRQKLARFNAREFATLIIDILSEAKRRQQGKSLSSPTDNLELSARNQSDLDDQHDYDSVASDEDTDQEPLPSAGATRNNRARSMDSSDLSDGAVTLQEYLELKKALATSEAKVQQLMKVNSSLSDELRKLQREIHKLQAENLQLRQPPGPVPVPSLPSERAEHTLMGPGGSTHRRDRQAFSMYEPGSALKPFGGAPGDELATRLQPFHSTELEDDAIYSVHVPAGLYRIRKGVSASSVTFTPSSPLLSSSQEGSRHASKLSRHGSGAESDYENTQSGEPLLGLEGKRFLELSKEDELHAELESLDGDPDPGLPSTEDVILKTEQVTKNIQELLRAAQEFKHDSFVPCSEKIHLAVTEMASLFPKRPALEPVRSSLRLLNASAYRLQSECRKTVPPEPGAPVDFQLLTQQVIQCAYDIAKAAKQLVTITTREKKQ
B2: Flag-tagged wild-type human GIT2 (protein, UniProt Q14161-1 1-759)
chain: MSKRLRSSEVCADCSGPDPSWASVNRGTFLCDECCSVHRSLGRHISQVRHLKHTPWPPTLLQMVETLYNNGANSIWEHSLLDPASIMSGRRKANPQDKVHPNKAEFIRAKYQMLAFVHRLPCRDDDSVTAKDLSKQLHSSVRTGNLETCLRLLSLGAQANFFHPEKGNTPLHVASKAGQILQAELLAVYGADPGTQDSSGKTPVDYARQGGHHELAERLVEIQYELTDRLAFYLCGRKPDHKNGQHFIIPQMADSSLDLSELAKAAKKKLQSLSNHLFEELAMDVYDEVDRRETDAVWLATQNHSALVTETTVVPFLPVNPEYSSTRNQGRQKLARFNAHEFATLVIDILSDAKRRQQGSSLSGSKDNVELILKTINNQHSVESQDNDQPDYDSVASDEDTDLETTASKTNRQKSLDSDLSDGPVTVQEFMEVKNALVASEAKIQQLMKVNNNLSDELRIMQKKLQTLQSENSNLRKQATTNVYQVQTGSEYTDTSNHSSLKRRPSARGSRPMSMYETGSGQKPYLPMGEASRPEESRMRLQPFPAHIGRSALVTSSSSLPSFPSTLSWSRDESARRASRLEKQNSTPESDYDNTPNDMEPDGMGSSRKGRQRSMVWPGDGLVPDTAEPHVAPSPTLPSTEDVIRKTEQITKNIQELLRAAQENKHDSYIPCSERIHVAVTEMAALFPKKPKSDMVRTSLRLLTSSAYRLQSECKKTLPGDPGSPTDVQLVTQQVIQCAYDIAKAAKQLVTITTKENNN

Target: T1, HA-tagged wild-type αPIX (human) (UniProt Q15052)
T1 sequence: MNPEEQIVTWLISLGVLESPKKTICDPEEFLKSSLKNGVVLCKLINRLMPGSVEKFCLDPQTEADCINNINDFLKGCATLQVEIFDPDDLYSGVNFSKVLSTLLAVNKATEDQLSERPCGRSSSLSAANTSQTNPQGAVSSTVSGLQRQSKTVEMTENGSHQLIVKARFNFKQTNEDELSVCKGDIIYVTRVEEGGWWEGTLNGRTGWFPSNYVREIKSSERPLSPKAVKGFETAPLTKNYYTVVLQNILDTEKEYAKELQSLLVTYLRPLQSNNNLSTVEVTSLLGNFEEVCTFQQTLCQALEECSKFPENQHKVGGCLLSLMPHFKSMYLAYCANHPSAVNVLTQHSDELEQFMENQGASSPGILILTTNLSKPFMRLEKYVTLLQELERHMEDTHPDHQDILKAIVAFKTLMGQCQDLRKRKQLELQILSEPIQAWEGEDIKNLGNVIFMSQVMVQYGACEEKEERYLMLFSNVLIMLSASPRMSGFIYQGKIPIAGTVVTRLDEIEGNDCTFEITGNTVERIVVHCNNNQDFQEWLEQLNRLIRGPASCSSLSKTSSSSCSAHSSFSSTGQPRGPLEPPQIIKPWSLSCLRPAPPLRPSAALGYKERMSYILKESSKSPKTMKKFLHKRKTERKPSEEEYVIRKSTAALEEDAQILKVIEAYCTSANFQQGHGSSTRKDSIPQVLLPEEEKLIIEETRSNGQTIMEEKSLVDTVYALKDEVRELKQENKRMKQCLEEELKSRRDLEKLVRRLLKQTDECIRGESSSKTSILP
Experiment: co-IP; transfected COS-7 cells; lysis in 150 mM Tris-HCl pH 8.0, 50 mM NaCl, 1 mM EDTA, 0.5% Nonidet P40; HA-αPIX precipitated on anti-HA agarose 2 h at 4°C; blot with anti-Cbl or anti-FLAG; in Fig 2A cells in 10% FBS or serum-starved and stimulated with 5 ng/ml EGF for 5-60 min

Row | Binder | binding
1 | B1 | binds
2 | B2 | binds
